According to PubChem BioAssay AID540276 (National Center for Advancing Translational Sciences (NCATS), 2011):
The whole screen tested about 300,000 compounds, of which about 5,400 (1.8%) were called active. The inconclusive results got no clear call from the source; some entries with a clear call stand among them for comparison. Calls follow the shape of the full dose curve; tested in HEK293 cells. A potency beside an inconclusive call is a rough fit, not a confirmed value.

Test: qHTS for inhibitors of binding or entry into cells for Marburg Virus
Conditions: Marburg virus pseudotyped entry inhibition, cell reporter; series mostly up to 37.8 µM
Potency is read from the fitted curve at half-maximal effect.

Q: With `COc1ccc(/C=C/C(=O)Nc2ccccc2C(=O)O)cc1` as the molecule, how does the Potency read?
A: active: 1.58 µM

Q: With `CCOc1ccccc1NC(=O)CCn1nc(C)c(S(=O)(=O)N2CCCCC2)c1C` as the molecule, how does the Potency read?
A: inconclusive: 3.55 µM [activator, single point]

Q: With `Cc1c(C(=O)N2CCN(c3cccc(Cl)c3)CC2)cccc1[N+](=O)[O-]` as the molecule, how does the Potency read?
A: inconclusive: 20.6 µM [inhibitor, single point]

Q: With `Cc1ccccc1OCC(=O)N1CCCc2ccccc21` as the molecule, how does the Potency read?
A: inactive

Q: Which Potency does the source give for `CC1Cc2ccccc2N1Cc1cccc(S(=O)(=O)N(C)C)c1` (centres undefined) here?
A: inconclusive: 25.1 µM [inhibitor, single point]

Q: Which Potency does the source give for `Cc1nc2ccccn2c1C(=O)N/N=C/c1ccccc1Cl` here?
A: inconclusive: 0.0891 µM [activator, full curve, poor fit]

Q: Which Potency does the source give for `C=C(C)C(=O)N1CCN(C(=O)C(=C)C)c2ccccc21` here?
A: inactive

Q: With `CNC(=O)/C=C/c1cccc(C(F)(F)F)c1` as the molecule, how does the Potency read?
A: inactive

Q: For `Cc1cc(=O)c(C(=O)O)nn1-c1ccccc1C(F)(F)F`, which Potency is on record?
A: inactive

Q: Which Potency does the source give for `COc1ccc(-c2cc(O)cc(O)c2)cc1` here?
A: inactive

Q: With `Cc1cc(NC(=O)COC(=O)c2cc([N+](=O)[O-])ccc2N2CCOCC2)ccc1Br` as the molecule, how does the Potency read?
A: inconclusive: 17.8 µM [inhibitor, partial curve, poor fit]

Q: With `COc1ccccc1NS(=O)(=O)c1cc(C(=O)N2CCCC2)ccc1F` as the molecule, how does the Potency read?
A: inactive

Q: For `CC12CN3CC(C)(CN(C1)C3c1ccc3ccccc3c1O)C2=O` (centres undefined), which Potency is on record?
A: inactive

Q: Which Potency does the source give for `CCOC(=O)N1CCN(S(=O)(=O)c2ccc3[nH]c(=O)sc3c2)CC1` here?
A: inconclusive: 3.16 µM [activator, single point]

Q: With `O=C(NCc1ccc(F)cc1)c1c2c(nc3ccccc13)CCN(Cc1ccccc1)C2` as the molecule, how does the Potency read?
A: inconclusive: 35.5 µM [inhibitor, single point]

Q: For `Cc1c(NC(=O)C(C)(C)Oc2ccc(Cl)cc2)cccc1-c1nc2ncccc2o1`, which Potency is on record?
A: inconclusive: 1.41 µM [inhibitor, full curve]

Q: Which Potency does the source give for `COc1ccc(C2=NN(CN3C(=O)C(=O)c4ccccc43)C(c3cccc([N+](=O)[O-])c3)C2)cc1` (centres undefined) here?
A: inactive

Q: With `Oc1c(Cl)cc(Cl)c(Cl)c1Cc1c(O)c(Cl)cc(Cl)c1Cl` as the molecule, how does the Potency read?
A: inconclusive: 7.31 µM [inhibitor, partial curve, poor fit]

Q: Which Potency does the source give for `Cc1ccc(C)c(Cn2nnc3c(=O)[nH]c(C4CCN(C(=O)c5ccco5)CC4)nc32)c1` here?
A: inconclusive: 35.5 µM [inhibitor, single point]

Q: With `O=C(CSc1nnc(CCCN2C(=O)c3cccc4cccc(c34)C2=O)n1-c1ccccc1)NCCCO` as the molecule, how does the Potency read?
A: inactive

Q: With `COC(=O)C1C2CC3c4[nH]c5cc(OC)ccc5c4CCN3CC2CC(OC(=O)CC(C)=O)C1OC` (centres undefined) as the molecule, how does the Potency read?
A: inconclusive: 12.6 µM [inhibitor, partial curve, poor fit]

Q: With `O=C(COc1ccccc1Cl)N(Cc1cccs1)C1CCS(=O)(=O)C1` (centres undefined) as the molecule, how does the Potency read?
A: inactive

Q: With `COCC(=O)OC/C(O)=C(\C#N)c1nc2ccccc2[nH]1` as the molecule, how does the Potency read?
A: inconclusive: 15.8 µM [inhibitor, single point]

Q: Which Potency does the source give for `Cc1cc(NC(=O)CSc2nnc(C3CC3)n2-c2ccccc2)no1` here?
A: inconclusive: 31.6 µM [inhibitor, single point]

Q: For `CC1CCN(CCCCOc2ccccc2[N+](=O)[O-])CC1`, which Potency is on record?
A: inconclusive: 29.1 µM [inhibitor, single point]

Q: For `COC(=O)C(C)n1nnc2sc(-c3ccccc3)cc2c1=O` (centres undefined), which Potency is on record?
A: inconclusive: 11.2 µM [activator, single point]

Q: For `CCOC(=O)N1CCc2c(sc3c2c(=O)n(Cc2ccccc2)c(=O)n3CC(=O)Nc2ccc(C)c(C)c2)C1`, which Potency is on record?
A: inactive

Q: With `C[C@@H](C(=O)NCc1ccccn1)[C@H]1C[C@]1(C)[C@H](NC(=O)OCc1ccccc1)c1ccccc1` as the molecule, how does the Potency read?
A: inconclusive: 23.1 µM [inhibitor, single point]

Q: For `N#C/C(=C\c1cccc([N+](=O)[O-])c1)C(=O)NCc1ccc(Cl)cc1`, which Potency is on record?
A: inconclusive: 35.5 µM [inhibitor, single point]

Q: With `COc1ccc2c(c1)c(=O)c(S(=O)(=O)c1ccc(C)cc1)cn2Cc1ccccc1C` as the molecule, how does the Potency read?
A: inconclusive: 35.5 µM [inhibitor, single point]

Q: With `Cc1nc2cc(C(=O)OCC(=O)NC(C)C(C)C)ccc2n1-c1ccccc1` (centres undefined) as the molecule, how does the Potency read?
A: inconclusive: 0.366 µM [activator, partial curve, poor fit]

Q: With `COc1cc(OC)c(OC)cc1/C=N/NC(=S)NCCN1CCOCC1` as the molecule, how does the Potency read?
A: inactive

Q: With `COc1ccc(OC)c(NC(=O)CNC(=O)Cn2cnc3ccccc3c2=O)c1` as the molecule, how does the Potency read?
A: active: 0.708 µM

Q: For `O=C1CSC(=S)N1N=Cc1ccc(Cl)cc1Cl`, which Potency is on record?
A: inactive

Q: With `O=C(COc1cc([N+](=O)[O-])cc2cccnc12)NCCC1=CCCCC1` as the molecule, how does the Potency read?
A: inconclusive: 11.2 µM [inhibitor, partial curve, poor fit]

Q: With `CCOC(=O)c1c(NC(=O)C2COc3ccccc3O2)sc2c1CC(C)(C)NC2(C)C` (centres undefined) as the molecule, how does the Potency read?
A: inconclusive: 20 µM [inhibitor, partial curve, poor fit]

Q: Which Potency does the source give for `COC(=O)c1cc(OC)c(OC)cc1NC(=O)CN1CCOCC1` here?
A: inconclusive: 1.46 µM [activator, full curve, poor fit]

Q: Which Potency does the source give for `CCC(CC)c1nnc(NC(=O)C2CC(=O)N(c3ccc4c(c3)OCCO4)C2)s1` (centres undefined) here?
A: inactive

Q: For `NC(=O)c1ccccc1NC(=O)c1ccccc1S(=O)(=O)c1ccccc1[N+](=O)[O-]`, which Potency is on record?
A: inconclusive: 0.082 µM [activator, partial curve, poor fit]

Q: With `CCN(CC(=O)NCc1ccc(Cl)cc1)C(=O)c1cc(S(=O)(=O)NCc2ccccc2)ccc1C` as the molecule, how does the Potency read?
A: inconclusive: 15.8 µM [inhibitor, single point]

Q: Which Potency does the source give for `O=C(NCCc1ccc2c(c1)OCCO2)c1ccc(F)cc1` here?
A: inconclusive: 0.355 µM [inhibitor, partial curve, poor fit]

Q: With `NS(=O)(=O)c1ccc(CNC(=O)C(c2ccccc2)c2ccccc2)cc1` as the molecule, how does the Potency read?
A: inactive

Q: For `COc1ccc(C(=O)N/C(=C\c2cn(C)c3ccccc23)C(=O)NCCCN2CCOCC2)cc1OC`, which Potency is on record?
A: inactive

Q: With `O=C(COC(=O)C12CC3CC(CC(O)(C3)C1)C2)Nc1cccc(Br)c1` as the molecule, how does the Potency read?
A: inactive
